Survivor count and T/C data for 11 compounds are collected here from PubChem BioAssay AID256 (DTP/NCI, 2004).

SMILES strings stand for the structures. The list does not hold the whole screen: it is rich in T/C values a quarter to a half above the control, in often repeated tests (any T/C) and in doses without a T/C. Further doses and runs are listed elsewhere. T/C gives the treated animals as a percentage of the vehicle group. Some entries give survivors of the animals treated and no T/C: the source files T/C as zero there, which appears to mark a toxic dose or a test without result, not a measured value. Some survivor counts are full or nearly so, which does not show that the dose was tolerated: survival well below the control is almost never listed, so the zero probably covers shortened survival too. Survivors were counted at the toxicity check, usually on the fifth day, unless a day is given; later deaths do not show. Schedule codes are those of the source, taken here to give the interval after Q, in days (D) or hours (H), and the number of doses after X. Some entries were tested several times; the results are listed from low to high. Where survival is the endpoint, the PubChem record calls one and a half times the control and up active, and a quarter to a half above the control has no call in these data; cut-offs in other NCI protocols can differ. Some T/C values are followed by the survivors on the day toxicity was checked, most often the fifth; where none is given, no animal had died by that day.

This test has as its system CD2F1 mice, L1210 leukemia ip, survival T/C. Briefly: NCI In Vivo Anticancer Drug Screen. Data for tumor model L1210 Leukemia (intraperitoneal) in CD2F1 (CDF1) mice. The conditions noted are these: higher T/C = longer survival. The method, boiled down:
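Read-out first: treated-group measurement over vehicle-control measurement, expressed as a ratio. Animals bore a transplanted tumor line and were dosed with compound or vehicle.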

The mark [1] stands for this setting: T/C endpoint: mean survival time, dose: 400.0 mg/kg/injection, schedule: Q01DX001 (ip), vehicle: saline.
Setting [2] is: T/C endpoint: mean survival time, dose: 150.0 mg/kg/injection, schedule: Q01DX001 (ip), vehicle: other.
Where [3] appears, read: T/C endpoint: mean survival time, dose: 300.0 mg/kg/injection, schedule: Q01DX001 (ip), vehicle: other.
The mark [4] stands for this setting: T/C endpoint: mean survival time, dose: 200.0 mg/kg/injection, schedule: Q04DX003 (ip), vehicle: saline with Tween-80.
[5] abbreviates: T/C endpoint: mean survival time, dose: 400.0 mg/kg/injection, schedule: Q04DX003 (ip), vehicle: saline with Tween-80.

As to `CC1=CC(=O)c2c(O)ccc(O)c2C1=O`, the survivor count is listed as 3 of 6 (T/C endpoint: mean survival time, dose: 20.0 mg/kg/injection, schedule: Q04DX003 (ip), vehicle: other); 1 of 6 (T/C endpoint: mean survival time, dose: 40.0 mg/kg/injection, schedule: Q04DX003 (ip), vehicle: other); 0 of 6 (T/C endpoint: mean survival time, dose: 80.0 mg/kg/injection, schedule: Q04DX003 (ip), vehicle: other); 3 of 6 (T/C endpoint: mean survival time, dose: 100.0 mg/kg/injection, schedule: Q01DX001 (ip), vehicle: saline); 3 of 6 (T/C endpoint: mean survival time, dose: 200.0 mg/kg/injection, schedule: Q01DX001 (ip), vehicle: saline); 0 of 6 under setting [1].

For `O=NN(CCCl)C(=O)NC1CCCCC1`, the T/C was 133 % of control (T/C endpoint: mean survival time, dose: 0.13 mg/kg/injection, schedule: Q03HX008 (oral), vehicle: saline); 135 % of control (T/C endpoint: mean survival time, dose: 2.0 mg/kg/injection, schedule: Q03HX024 (oral), vehicle: saline); 127 % of control (T/C endpoint: mean survival time, dose: 8.0 mg/kg/injection, schedule: Q01DX001 (ip), vehicle: other); 133 % of control (T/C endpoint: mean survival time, dose: 8.0 mg/kg/injection, schedule: Q03HX024 (ip), vehicle: saline); 145 % of control (T/C endpoint: mean survival time, dose: 8.0 mg/kg/injection, schedule: Q03HX040 (ip), vehicle: saline); 129 % of control (T/C endpoint: mean survival time, dose: 8.0 mg/kg/injection, schedule: Q04DX003 (ip), vehicle: saline + alcohol). Further, the T/C is 137 % of control (T/C endpoint: mean survival time, dose: 14.0 mg/kg/injection, schedule: Q01DX001 (ip), vehicle: carboxymethylcellulose (CMC)); 134 % of control (T/C endpoint: mean survival time, dose: 16.0 mg/kg/injection, schedule: Q01DX001 (ip), vehicle: saline); 128 % of control (T/C endpoint: mean survival time, dose: 16.0 mg/kg/injection, schedule: Q03HX008 (ip), vehicle: saline); 137 % of control (T/C endpoint: mean survival time, dose: 32.0 mg/kg/injection, schedule: Q04DX003 (ip), vehicle: saline + alcohol); 129 % of control (T/C endpoint: mean survival time, dose: 64.0 mg/kg/injection, schedule: Q04DX003 (oral), vehicle: saline); 137 % of control (T/C endpoint: mean survival time, dose: 128.0 mg/kg/injection, schedule: Q03HX024 (ip), vehicle: saline). In addition, the T/C (T/C endpoint: mean survival time, dose: 512.0 mg/kg/injection, schedule: Q01DX001 (oral), vehicle: saline) was 144 % of control [7 of 10 alive]; the T/C (T/C endpoint: median survival time, dose: 2.0 mg/kg/injection, schedule: Q01DX009 (ip), vehicle: Klucel (hydroxypropylcellulose) (HPC)) is 148 % of control; the T/C (T/C endpoint: median survival time, dose: 4.0 mg/kg/injection, schedule: Q01DX009 (ip), vehicle: Klucel (hydroxypropylcellulose) (HPC)) is listed as 162, 175, 190, 260 % of control; the T/C (T/C endpoint: median survival time, dose: 8.0 mg/kg/injection, schedule: Q01DX009 (ip), vehicle: Klucel (hydroxypropylcellulose) (HPC)) is 232, 259, 365, 375 % of control; the T/C (T/C endpoint: median survival time, dose: 16.0 mg/kg/injection, schedule: Q01DX009 (ip), vehicle: Klucel (hydroxypropylcellulose) (HPC)) is given as 287, 306, 348, 365 % of control; the T/C (T/C endpoint: median survival time, dose: 24.0 mg/kg/injection, schedule: Q01DX001 (ip), vehicle: distilled water + Tween-80 + alcohol) was 127 % of control. The T/C (T/C endpoint: median survival time, dose: 32.0 mg/kg/injection, schedule: Q01DX009 (ip), vehicle: Klucel (hydroxypropylcellulose) (HPC)) was 127, 137, 304, 348 % of control. Also, the survivor count is listed as 10 of 10 (T/C endpoint: mean survival time, dose: 2.0 mg/kg/injection, schedule: Q03HX040 (oral), vehicle: saline); 10 of 10 (T/C endpoint: mean survival time, dose: 4.0 mg/kg/injection, schedule: Q03HX008 (oral), vehicle: saline); 7 of 10 (T/C endpoint: mean survival time, dose: 4.0 mg/kg/injection, schedule: Q03HX040 (oral), vehicle: saline); 9 of 10 (T/C endpoint: mean survival time, dose: 8.0 mg/kg/injection, schedule: Q03HX008 (oral), vehicle: saline); 7 of 10 (T/C endpoint: mean survival time, dose: 8.0 mg/kg/injection, schedule: Q03HX024 (oral), vehicle: saline); 1 of 10 (T/C endpoint: mean survival time, dose: 8.0 mg/kg/injection, schedule: Q03HX040 (oral), vehicle: saline). Moreover, the survivor count is 6 of 6 (T/C endpoint: mean survival time, dose: 128.0 mg/kg/injection, schedule: Q01DX001 (ip), vehicle: other); 10 of 10 (T/C endpoint: mean survival time, dose: 128.0 mg/kg/injection, schedule: Q01DX005 (ip), vehicle: saline); 10 of 10 (T/C endpoint: mean survival time, dose: 128.0 mg/kg/injection, schedule: Q01DX005 (oral), vehicle: saline); 10 of 10 (T/C endpoint: mean survival time, dose: 128.0 mg/kg/injection, schedule: Q01DX009 (ip), vehicle: saline); 9 of 10 (T/C endpoint: mean survival time, dose: 128.0 mg/kg/injection, schedule: Q01DX009 (oral), vehicle: saline); 10 of 10 (T/C endpoint: mean survival time, dose: 128.0 mg/kg/injection, schedule: Q04DX003 (ip), vehicle: saline). For the same compound, the survivor count is, setting by setting: (T/C endpoint: mean survival time, dose: 256.0 mg/kg/injection, schedule: Q01DX001 (oral), vehicle: saline) 6 of 10; (T/C endpoint: mean survival time, dose: 256.0 mg/kg/injection, schedule: Q01DX005 (oral), vehicle: saline) 8 of 10; (T/C endpoint: mean survival time, dose: 256.0 mg/kg/injection, schedule: Q01DX009 (oral), vehicle: saline) 8 of 10; (T/C endpoint: mean survival time, dose: 512.0 mg/kg/injection, schedule: Q01DX005 (oral), vehicle: saline) 1 of 10; (T/C endpoint: mean survival time, dose: 512.0 mg/kg/injection, schedule: Q01DX009 (oral), vehicle: saline) 1 of 10; (T/C endpoint: mean survival time, dose: 512.0 mg/kg/injection, schedule: Q04DX003 (oral), vehicle: saline) 6 of 10. The survivor count (T/C endpoint: median survival time, dose: 128.0 mg/kg/injection, schedule: Q01DX009 (ip), vehicle: Klucel (hydroxypropylcellulose) (HPC)) is 3 of 6 and 6 of 6.

Consider `c1ccc2[nH]c(CCCCc3nc4ccccc4[nH]3)nc2c1`, for which the survivor count (T/C endpoint: mean survival time, dose: 400.0 mg/kg/injection, schedule: Q04DX003 (ip), vehicle: saline) is 3 of 6.

For the compound `CC1(C)N=C(N)N=C(N)N1c1ccc(CCCCc2ccc(S(=O)(=O)F)cc2)c(Cl)c1`, the T/C runs as follows: (T/C endpoint: mean survival time, dose: 7.5 mg/kg/injection, schedule: Q01DX009 (ip), vehicle: saline) 128 % of control; (T/C endpoint: mean survival time, dose: 15.0 mg/kg/injection, schedule: Q01DX009 (ip), vehicle: saline) 128 % of control; (T/C endpoint: mean survival time, dose: 30.0 mg/kg/injection, schedule: Q01DX009 (ip), vehicle: saline with Tween-80) 128 % of control; (T/C endpoint: mean survival time, dose: 30.0 mg/kg/injection, schedule: Q01DX009 (ip), vehicle: saline) 131 % of control.

Take `COc1cc2c(cc1OC)C13CCN4CC5=CCOC(CC(=O)O)C(C5CC41)C3N2` (stereo not drawn): the survivor count by setting is: under setting [2], 3 of 6; under setting [3], 3 of 6; (T/C endpoint: mean survival time, dose: 300.0 mg/kg/injection, schedule: Q01DX001 (ip), vehicle: saline) 1 of 6.

Turning to `COc1cc(OC)c(NC(=O)Oc2c(Cl)cccc2Cl)cc1Cl`, the survivor count (T/C endpoint: mean survival time, dose: 200.0 mg/kg/injection, schedule: Q01DX009 (ip), vehicle: saline with Tween-80) is given as 2 of 3.

Consider `N/N=C(\N)c1ccccc1`, for which the survivor count under setting [1] was 0 of 6.

With `CSc1ncnc2c1ccn2C1OC(COP(=O)(O)O)C(O)C1O` (stereo not drawn), the T/C (T/C endpoint: mean survival time, dose: 100.0 mg/kg/injection, schedule: Q01DX005 (ip), vehicle: water) was 127 and 135 % of control. Besides, the survivor count (T/C endpoint: mean survival time, dose: 200.0 mg/kg/injection, schedule: Q01DX005 (ip), vehicle: water) was 0 of 6.

Consider `C=C(C)C1CNC(C(=O)O)C1CC(=O)O` (stereo not drawn), for which the survivor count is on record as 0 of 6 (T/C endpoint: mean survival time, dose: 100.0 mg/kg/injection, schedule: Q04DX003 (ip), vehicle: saline with Tween-80); 0 of 6 under setting [4]; 0 of 6 under setting [5].

`CCOP(=O)(OCC)C1=C(P(=O)(OCC)OCC)C(F)(F)C(F)(F)C1(F)F`: the survivor count is, setting by setting: under setting [2], 0 of 6; under setting [3], 0 of 6.

Consider `CC(=O)CC(Br)CBr` (stereo not drawn), for which the survivor count is, setting by setting: under setting [4], 4 of 6; under setting [5], 0 of 6.
